This note sets out measurements from paper PMC8511299.

The chains behind the UniProt entries cited, without tags or fusion partners.
UniProt P28033: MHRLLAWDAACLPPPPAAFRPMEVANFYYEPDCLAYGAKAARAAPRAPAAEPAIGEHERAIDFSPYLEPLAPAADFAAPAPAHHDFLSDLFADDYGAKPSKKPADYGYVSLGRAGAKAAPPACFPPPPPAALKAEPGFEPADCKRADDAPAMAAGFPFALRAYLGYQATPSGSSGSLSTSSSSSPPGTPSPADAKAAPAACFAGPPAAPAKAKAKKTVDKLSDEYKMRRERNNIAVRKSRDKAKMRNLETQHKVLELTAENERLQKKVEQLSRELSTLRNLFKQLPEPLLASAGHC

The target of the assay is T1, Sirutin 2 (SIRT2) (mouse (endogenous in AML12)) (UniProt Q8VDQ8).
T1 sequence: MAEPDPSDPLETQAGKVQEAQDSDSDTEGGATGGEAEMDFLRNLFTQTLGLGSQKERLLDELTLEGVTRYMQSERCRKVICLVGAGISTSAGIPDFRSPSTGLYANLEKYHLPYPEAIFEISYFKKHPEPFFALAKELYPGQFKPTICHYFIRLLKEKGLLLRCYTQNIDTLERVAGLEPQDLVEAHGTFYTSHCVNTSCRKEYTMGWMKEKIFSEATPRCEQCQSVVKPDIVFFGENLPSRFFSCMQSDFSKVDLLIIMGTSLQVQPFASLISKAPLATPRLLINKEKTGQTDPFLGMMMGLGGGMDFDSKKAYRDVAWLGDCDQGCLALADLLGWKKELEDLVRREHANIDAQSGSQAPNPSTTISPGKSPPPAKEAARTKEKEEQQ
Nature of the assay: co-IP; endogenous proteins in AML12 cells, with or without ethanol; C/EBPβ coimmunoprecipitated with the same loading amount of SIRT2.

Results are given in words; binding and its absence hold for the method and conditions named. In cells and extracts the contact can be indirect. Some results given as binding are weak or reduced against the parent protein; the word gives no strength.

For “CCAAT/enhancer-binding protein beta (C/EBPβ) (from UniProt P28033 1-296)”, the binding result is “binds”.
